Data on one substance can be found in patent US6403769.

Chains of the proteins cited; added tags and fusions are not shown. Lines headed by an entry give the natural chain unless they say otherwise; changes in a name come on top. Residues count along the entry.
UniProt P03968, residues 16-155: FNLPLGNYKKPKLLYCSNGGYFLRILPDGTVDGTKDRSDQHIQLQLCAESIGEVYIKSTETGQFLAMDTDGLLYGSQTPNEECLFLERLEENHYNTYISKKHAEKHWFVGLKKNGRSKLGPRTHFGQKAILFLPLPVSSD
UniProt P21803: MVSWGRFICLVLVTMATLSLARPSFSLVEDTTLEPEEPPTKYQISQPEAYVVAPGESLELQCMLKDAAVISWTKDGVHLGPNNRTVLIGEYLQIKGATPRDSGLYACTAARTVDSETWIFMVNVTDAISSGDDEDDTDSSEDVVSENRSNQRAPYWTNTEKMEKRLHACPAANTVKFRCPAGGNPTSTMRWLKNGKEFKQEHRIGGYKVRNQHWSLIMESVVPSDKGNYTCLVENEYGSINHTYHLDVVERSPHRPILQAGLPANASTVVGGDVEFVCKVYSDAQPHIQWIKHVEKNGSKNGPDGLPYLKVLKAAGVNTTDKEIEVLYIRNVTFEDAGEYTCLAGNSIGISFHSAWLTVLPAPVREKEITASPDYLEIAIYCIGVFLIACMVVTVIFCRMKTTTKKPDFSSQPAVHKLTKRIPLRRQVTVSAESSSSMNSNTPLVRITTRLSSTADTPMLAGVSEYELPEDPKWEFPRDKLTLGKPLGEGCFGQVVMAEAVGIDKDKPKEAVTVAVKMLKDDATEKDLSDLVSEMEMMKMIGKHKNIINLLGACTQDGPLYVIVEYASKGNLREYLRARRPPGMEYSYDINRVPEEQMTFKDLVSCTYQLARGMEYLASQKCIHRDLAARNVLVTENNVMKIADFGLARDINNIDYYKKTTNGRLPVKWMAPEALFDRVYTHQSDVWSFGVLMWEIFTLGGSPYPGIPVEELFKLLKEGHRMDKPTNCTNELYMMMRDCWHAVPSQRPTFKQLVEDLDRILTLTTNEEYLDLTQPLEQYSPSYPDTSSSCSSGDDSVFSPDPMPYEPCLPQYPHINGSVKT

The assay has as its target bovine brain aFGF (bovine) (UniProt P03968). The assay is described as follows: summary of the in vitro binding assay.

No constants are given. Whether binding was seen depends on the method and setting. Some results given as binding are weak or reduced against the parent protein; the word gives no strength.

As for “D2-HFc fusion protein (from UniProt P21803 22-156; P01868 98-324)”, the binding result is recorded as “binds”.
